PubChem BioAssay AID1224829 – NIAID | 2016
This is a random part of about 3,800 reagents tested. 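Calls cover raised and lowered translocation; gene median uses one vendor's three siRNAs; qiagen siRNAs acted more weakly than ambion siRNAs.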 Unmarked entries are inactive. The numbers tell different reagents against one gene apart. Further read-outs or replicates are left out here. No sequences are given here.

Assay: 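Secondary check of hits that alter LPS-induced p65 translocation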 (follow-up of hits)
System: mouse RAW264.7 G9 macrophage reporter cells
Knock-down reagent: single siRNA against mouse genes, 100 nM
Timing: 2 days of siRNA knock-down, then 40 min of LPS before fixing
Treatment: LPS (Salmonella minnesota R595) at 10 ng/ml
Detection: 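Imaging of GFP-p65 after 40 min of LPS; nuclear over perinuclear ring intensity ratio, scaled to plate median and non-targeting control wells, given as z-score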
Direction: p65 translocation z-score: higher = more nuclear NF-kappaB p65 after LPS
Rule for the call: 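An siRNA is called active when the mean z-score of its two replicates is above 2 or below -2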
Calls: active = changed p65 translocation (either direction); inactive = no clear change

For Tjp3 (tight junction protein 3) #1, siRNA vendor or control pool ambion single siRNA, what was measured?
p65 translocation z-score, replicate mean: -0.211

With Tjp3 (tight junction protein 3) #2, siRNA vendor or control pool ambion single siRNA, how do the results read?
p65 translocation z-score, replicate mean: -0.398

What is on record for Tjp3 (tight junction protein 3) #3, siRNA vendor or control pool ambion single siRNA?
p65 translocation z-score, replicate mean: -1.52

With Tjp3 (tight junction protein 3) #4, siRNA vendor or control pool qiagen single siRNA, what was measured?
p65 translocation z-score, replicate mean: 1.41

What is on record for Tjp3 (tight junction protein 3) #5, siRNA vendor or control pool qiagen single siRNA?
p65 translocation z-score, replicate mean: -2.02 (active)

What is on record for Tjp3 (tight junction protein 3) #6, siRNA vendor or control pool qiagen single siRNA?
p65 translocation z-score, replicate mean: -1.14

What did the screen give for Tcf20 (transcription factor 20) #1, siRNA vendor or control pool ambion single siRNA?
p65 translocation z-score, replicate mean: -0.434

For Tcf20 (transcription factor 20) #2, siRNA vendor or control pool ambion single siRNA, how do the results read?
p65 translocation z-score, replicate mean: -3.12 (active)

For Tcf20 (transcription factor 20) #3, siRNA vendor or control pool ambion single siRNA, what does the deposit list?
p65 translocation z-score, replicate mean: -1.47

How did the screen score Tcf20 (transcription factor 20) #4, siRNA vendor or control pool qiagen single siRNA?
p65 translocation z-score, replicate mean: -0.0501

How did the screen score Tcf20 (transcription factor 20) #5, siRNA vendor or control pool qiagen single siRNA?
p65 translocation z-score, replicate mean: 0.935

How did the screen score Tcf20 (transcription factor 20) #6, siRNA vendor or control pool qiagen single siRNA?
p65 translocation z-score, replicate mean: 1.23

Part of the list above in another layout.
{"Gene":"Tjp3 (tight junction protein 3)","siRNA no.":5,"siRNA vendor or control pool":"qiagen single siRNA","p65 translocation z-score, replicate mean":"-2.02 (active)"}
{"Gene":"Tjp3 (tight junction protein 3)","siRNA no.":6,"siRNA vendor or control pool":"qiagen single siRNA","p65 translocation z-score, replicate mean":-1.14}
